Experimental data taken from patent publication US11365410B2, “Production and monitoring of metabolites in cells” (President and Fellows of Harvard College, priority 2015, dated 2022).
At least one compound was matched to its structure with a doubt left.

Amino acid sequences for entries named in this document (tags omitted). A change or cut given only in a name is not applied to a line headed by its entry.
UniProt P37047: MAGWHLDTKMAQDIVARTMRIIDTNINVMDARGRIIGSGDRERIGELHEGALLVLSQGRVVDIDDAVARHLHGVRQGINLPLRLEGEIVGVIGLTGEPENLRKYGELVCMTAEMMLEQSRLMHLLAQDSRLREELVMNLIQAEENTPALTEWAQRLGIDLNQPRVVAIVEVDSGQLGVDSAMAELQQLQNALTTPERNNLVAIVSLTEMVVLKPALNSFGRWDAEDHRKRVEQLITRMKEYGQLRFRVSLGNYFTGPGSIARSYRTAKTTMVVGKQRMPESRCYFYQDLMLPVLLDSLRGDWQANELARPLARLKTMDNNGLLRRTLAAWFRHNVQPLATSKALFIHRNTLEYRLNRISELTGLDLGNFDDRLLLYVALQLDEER

Columns and labels:
[1] = test system: acuR; assay: acuR-based 3HP biosensor induction (indirect, via acrylate); format: cell-based, Rhodobacter sphaeroides; details: without pcs^Δ3 and ach
Method: Metab Eng, 16, 130-139 hereby incorporated by reference in its entirety). All three reactions are useful for a prpR-based biosensor, but for the acuR-based biosensor, accumulation of acrylyl-CoA rather than propionyl-CoA is necessary. […] Accordingly, the domain responsible for conversion of acrylyl-CoA to propionyl-CoA was removed while preserving the activity of the other two domains. […] A 90-fold increase in fluorescence was obtained when the acuR-based biosensor was induced with 10 mM 3HP. […] Fluorescence remained at background levels for greater than 16 hours in the absence of pcs^Δ3 and ach (see FIG. 17).
Plasmids were constructed using Gibson isothermal assembly methods (see Gibson, D. G., Young, L., Chuang, R. Y., Venter, J. C., Hutchison, C. A., 3rd and Smith, H. O. (2009) Enzymatic assembly of DNA molecules up to several hundred kilobases. Nat Methods, 6, 343-345 hereby incorporated by reference in its entirety) and cloned into DH5α electrocompetent cells purchased from New England Biolabs. Biosynthesis of product molecules was carried out in either BL21 (DE3) or DH5α. The prpR-based 3HP biosensor was implemented as a two-plasmid system. The first plasmid is pPro24-GFP (Addgene plasmid #18880), which expresses GFPuv under the control of the methyl-citrate responsive transcription factor, prpR, on a pBR322 origin of replication providing β-lactam resistance. […]

[2] = test system: prpR (E. coli); assay: prpR-based 3HP biosensor induction (indirect, via 2-methylcitrate); format: cell-based; details: without helper enzyme pcs
From the text: According to a first aspect, 3-HP is transformed into 2-methylcitrate in the presence of a 2-methylcitrate sensor. The resulting system is a 3-HP biosensor. The transcriptional regulator prpR from E. coli is used to control gene expression in proportion to the concentration of 2-methylcitrate inside the cell. This inducible system has been described previously with the aim of sensing propionate—a distinct chemical from 3HP (WO 2007005837 A3, http://www.ncbi.nlm.nih.gov/pubmed/16269719). The endogenous enzyme, 2-methylcitrate synthase (prpC), and the heterologous multifunctional enzyme propionyl-CoA synthase (pcs) from the carbon fixation pathway of Chloroflexus aurantiacus (see Mattozzi, M., Ziesack, M., Voges, M. J., Silver, P. A. and Way, J. C. (2013) Expression of the sub-pathways of the Chloroflexus aurantiacus 3-hydroxypropionate carbon fixation bicycle in E. coli: Toward horizontal transfer of autotrophic growth. Metab Eng, 16, 130-139 hereby incorporated by reference in its entirety) are used to produce 2-methylcitrate from 3-HP. Together the system of three genes (pcs, prpC, prpR) comprises the prpR-based 3HP biosensor (see FIG. 15A). […] As a result of this linkage, 3-HP concentration controls expression of green fluorescent protein (GFP). […] The proportion of 2-methylcitrate produced in this way is proportional to the amount of 3-HP inside the cell. […]

[3] = target: cdaR (E. coli) (Escherichia coli, UniProt P37047); assay: cdaR glucarate biosensor strain lacking the glucarate biosynthesis pathway; format: cell-based; details: glucarate added

Row | Structure (SMILES) | Response of acuR sensor alone [1] | Response of prpR sensor alone [2] | Fluorescent response without biosynthesis pathway [3]
1 | O=C(O)CCO [3-HP, 3-hydroxypropionate] | does not react | cannot detect | –
2 | O=C(O)[C@@H](O)[C@@H](O)[C@H](O)[C@@H](O)C(=O)O [Glucarate, glucarate] | – | – | fluorescent response
